The other results are listed elsewhere or left out.

Sequences of proteins named here, by UniProt entry; tags and fusion partners are left off.
UniProt Q0JBA9, entry or part of it: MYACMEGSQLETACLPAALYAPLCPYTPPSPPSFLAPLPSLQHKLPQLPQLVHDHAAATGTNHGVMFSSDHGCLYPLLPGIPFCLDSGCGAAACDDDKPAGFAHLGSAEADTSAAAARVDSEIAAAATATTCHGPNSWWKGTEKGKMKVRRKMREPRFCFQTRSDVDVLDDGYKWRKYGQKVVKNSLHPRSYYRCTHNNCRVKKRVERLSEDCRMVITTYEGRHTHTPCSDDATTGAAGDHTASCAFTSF

This test deals with OsWRKY34 (Oryza sativa, UniProt Q0JBA9 1-250). Kind of test: protein-binding microarray (RPBM); PBS, 2% BSA, 51.3 ng/ul salmon testes DNA, 50 uM zinc acetate, 200 nM TF, 25 C, 1 h; high values mean tight binding. To be noted: protein: recombinant; tags: N-terminal polyhistidine and DsRed monomer fusion (pET32a); label: CyDye5-dUTP incorporated in the synthesized complementary strand; 3' TTTTT single-stranded linker to array surface; dsDNA, one strand shown. In short, it runs like this: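 Binding signal here means per-feature fluorescence intensity in arbitrary units. The values were read on an Axon 4000B scanner after a custom Agilent array, double-stranded by primer extension with Cy5-dUTP, was incubated with 200 nM protein at 25 °C for 1 h in PBS with 2% BSA, salmon testes DNA and 50 µM zinc acetate, then washed. The proteins were transcription factors with an N-terminal polyhistidine tag and DsRed, expressed in E. coli BL21-CodonPlus and purified on Ni–NTA.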
For the sequence “AGTTATTTCTAGATTGTATTCCTATATGGACTCTTCTTTTCGGAGTCACCTAGTGCAG”, the binding signal is 8560 fluorescence intensity (a.u.).
The figure for “GGCTTGATTTATTGATTTGTTCTTTAGTACTCCAGTTCAACGGAGTCACCTAGTGCAG” is 8620 fluorescence intensity (a.u.); for “TGGTTTTATAGGCGTGGGGTGTGGAGCTTCGAGGGGAAGGCGGAGTCACCTAGTGCAG” it is 13900 fluorescence intensity (a.u.).
The figure for “TTTCCCAGTTTCTCTATATTCTCATTAGCTGTTTCTTTCTCGGAGTCACCTAGTGCAG” is 9450 fluorescence intensity (a.u.); for “GCGTAACTTACTTTGTATTGTCCTCATGCAGAAGGCCTTCCGGAGTCACCTAGTGCAG” it is 9600 fluorescence intensity (a.u.); for “CCGTTGCAGAAAGCCTTTGCTCTCTTCTTGCTTTCCTCAACGGAGTCACCTAGTGCAG” it is 10300 fluorescence intensity (a.u.).
For “ATGTCAATTTTCTCGCGTCCGTCCTATCTCTCGTGTTTTACGGAGTCACCTAGTGCAG”, the binding signal is 12000 fluorescence intensity (a.u.).
The figure for “ATGAAACTTGTAGGACCACTTTGCCTATTCACCCAAATTACGGAGTCACCTAGTGCAG” is 9080 fluorescence intensity (a.u.); for “ATCATATAGTCCCATACCGCCCGCCTAGTCTCATTGGAAACGGAGTCACCTAGTGCAG” it is 13400 fluorescence intensity (a.u.).
Take “GGTTTGGTGAACTGTGTATAATGGAGATGGGGTGGGTTGGCGGAGTCACCTAGTGCAG”: the binding signal was 13400 fluorescence intensity (a.u.).
As for “CTTCTCTTTATCTCAGCGATGGGCGGGCAGCGTGCGAGCACGGAGTCACCTAGTGCAG”, the binding signal is 12800 fluorescence intensity (a.u.).
For the sequence “TCGCCATGATTGATCTGATTGCCTACTTAAATTACATTTCCGGAGTCACCTAGTGCAG”, the binding signal is 8590 fluorescence intensity (a.u.).
The figure for “CTTGTCGTTTCCATGTAGAACTCTGGTTGTCTTTCCTTATCGGAGTCACCTAGTGCAG” is 10600 fluorescence intensity (a.u.); for “GTGGACAAGGACTGGGGTGCTGGGTCATCAGATGATTTGACGGAGTCACCTAGTGCAG” it is 8470 fluorescence intensity (a.u.); for “CTCCTTTTTCTCTCTCTGATGAATGGTCTCTTTAATTTTACGGAGTCACCTAGTGCAG” it is 8300 fluorescence intensity (a.u.).
The figure for “ACTCACATACACACACACTCGATCTTGTGCCTCTGCAGCACGGAGTCACCTAGTGCAG” is 8240 fluorescence intensity (a.u.).
The figure for “CCGGCCGCGCGCTCCTTTTCTAGCGCACGTTAGAAGCTTCCGGAGTCACCTAGTGCAG” is 8230 fluorescence intensity (a.u.); for “CTATCCATCTACTGCAGTTTGCTCACTGGAAATGTTTTTCCGGAGTCACCTAGTGCAG” it is 12000 fluorescence intensity (a.u.); for “ACCCGACTCTCTACACTCTAAGTCTCTAGTCTCTACACGACGGAGTCACCTAGTGCAG” it is 9720 fluorescence intensity (a.u.).
Regarding “CGCGTGCATTTGCATCGTCGTTGTGTCATGTCGTCAAGCTCGGAGTCACCTAGTGCAG”, the binding signal was 8880 fluorescence intensity (a.u.).
Regarding “GCACGCATGTGCCCACCCTGTCTGTCCCGATGTCCGTGGACGGAGTCACCTAGTGCAG”, the binding signal was 8650 fluorescence intensity (a.u.).
The figure for “TGTATTAGCACTTTATGTCTGGTCCCATCTATTTTTTAATCGGAGTCACCTAGTGCAG” is 9920 fluorescence intensity (a.u.); for “GCTATGGGTGTCTGGGTTGAATTGTTTATTTCCATAGAATCGGAGTCACCTAGTGCAG” it is 8880 fluorescence intensity (a.u.); for “AGGTGGAGGCGCCGGTGTGGGTGGTGGAGCGGGAGGAGGTCGGAGTCACCTAGTGCAG” it is 8610 fluorescence intensity (a.u.).
The figure for “AATTAGCCGCAACTTCGACTGGTCAGTTCTCACTATCGATCGGAGTCACCTAGTGCAG” is 9930 fluorescence intensity (a.u.); for “ATCGGTGTTGACCTCCATATGCTGATCAGGCCCCATTTCCCGGAGTCACCTAGTGCAG” it is 8140 fluorescence intensity (a.u.); for “TCACACGGTTTTCGGTTGATGCCATGGTAACCGTCTTGCTCGGAGTCACCTAGTGCAG” it is 8570 fluorescence intensity (a.u.).
The figure for “CCGTTGCTCCCGTGCTCCCTGCGCGCCGCCATGTCCGCTCCGGAGTCACCTAGTGCAG” is 9990 fluorescence intensity (a.u.).
Turning to “CACCTGGACTTGGATCATCACCTTAAGGTAATGCATACTTCGGAGTCACCTAGTGCAG”, the binding signal is 8650 fluorescence intensity (a.u.).
The figure for “GGAGTGGGATGGCTCATTTGTCGACAGCTCCGCCACGAGGCGGAGTCACCTAGTGCAG” is 10500 fluorescence intensity (a.u.); for “TTAGGTTTTGTTGATTTATTGCGTGATGATTTTATAGAAACGGAGTCACCTAGTGCAG” it is 8990 fluorescence intensity (a.u.).
Consider “AATTTTGATAAATTTTGCATGGTTTTGTACGGTTTTTCACCGGAGTCACCTAGTGCAG”, for which the binding signal was 8080 fluorescence intensity (a.u.).
The figure for “TATGTAGTTCTATTTAGGCCATATCACATCAATTATTTTTCGGAGTCACCTAGTGCAG” is 8360 fluorescence intensity (a.u.).
The figure for “CTTCACTCCACATCTGTTTCCATCGCGAGCCACAGAGAGACGGAGTCACCTAGTGCAG” is 8900 fluorescence intensity (a.u.); for “TTCGGCTCAGCCTGTAACATCTCGAACAGTCTCGTGCCCGCGGAGTCACCTAGTGCAG” it is 9110 fluorescence intensity (a.u.).
The figure for “GGTTTGGGCTGGAGTGGATGCGGGTTGGCCTGTGAAGACTCGGAGTCACCTAGTGCAG” is 10100 fluorescence intensity (a.u.).
Regarding “GGATTTTAGTTTTTTGTTTTCAGTGGGATCTGGTTCATTGCGGAGTCACCTAGTGCAG”, the binding signal is 9630 fluorescence intensity (a.u.).
Regarding “GAATGCGCCCGCCCAAACACCTTACTCCTATAGCTGCATCCGGAGTCACCTAGTGCAG”, the binding signal is 9140 fluorescence intensity (a.u.).
The figure for “CCATTCAAACGGTCATCATCGTCATCTATATCTATACTAACGGAGTCACCTAGTGCAG” is 8310 fluorescence intensity (a.u.).
The figure for “TGCTTCCGCCACCGCCACCGCCCAACGACCAGCAGCAAGCCGGAGTCACCTAGTGCAG” is 10200 fluorescence intensity (a.u.).
For “TAAAGCTTTATATAGCTGGCCCGCTGACTTTTTTATATATCGGAGTCACCTAGTGCAG”, the binding signal is 9020 fluorescence intensity (a.u.).
As for “CCTTCTCTCACACACACTTTTTCTTCCTTCCCACTTTGCACGGAGTCACCTAGTGCAG”, the binding signal is 9700 fluorescence intensity (a.u.).

Values taken from paper PMC7819943, “Rice protein-binding microarrays: a tool to detect cis-acting elements near promoter regions in rice”.
